In PubChem BioAssay AID504834 (National Center for Advancing Translational Sciences (NCATS), 2011):
Where “and” joins values, the source holds several entries; their conditions need not be identical. Equal entries are not always repeated. Hit rate of the full screen: of about 320,000 compounds, about 22,000 (6.9%) were called active. This list was built around the results that the source calls inconclusive (neither active nor inactive); the mix of calls is not that of the screen. The call rests on the fitted dose curve; in most records, active means well fitted inhibition curve with a large enough effect; inconclusive means small, poorly fitted or top-dose-only effect, or another doubt; inactive means no such curve, though single readings can be large or run the other way. A potency beside an inconclusive call is a rough fit, not a confirmed value.

test: Primary qHTS for delayed death inhibitors of the malarial parasite plastid, 96 hour incubation; conditions: P. falciparum luciferase reporter growth; series mostly up to 28.7 µM
Summary of the method: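 Erythrocytes infected with luciferase-expressing P. falciparum were dispensed at 2% hematocrit and 0.05% parasitemia (final), then incubated with compounds 96 hours at 37 C in 5% CO2. Luminescence after detection reagent addition reported growth.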
On the % scale 0 is the no-effect control and ±100 the full control effect; potency means the concentration at half of the fitted maximal effect.

SMILES	Potency	activity change, negative = inhibition
CC1CN(CCCSc2ccc(Cl)cc2)CC(C)O1 (stereo not given)	inconclusive: 2.33 µM [inhibitor, full curve]	
CCC(C(=O)NC(C)CCc1ccco1)n1nc(C)n2c(cc3occc32)c1=O (stereo not given)	inactive	
CCOc1ccc(Nc2nc(Cc3nnc(SCC(=O)c4ccc(C)cc4)o3)cs2)cc1	inconclusive: 18.5 µM [inhibitor, single point]	
CC1c2ccsc2CCN1C(=O)NC(=O)c1ccc(Cl)cc1 (stereo not given)	inconclusive: 11.7 µM [inhibitor, single point]	
C/C(=N\NC(=O)CC#N)C1COc2ccccc2O1 (stereo not given)	inactive	
C=CCn1c(SCc2ccc(F)cc2)nnc1-c1sc2nc(C)cc(C)c2c1N	inconclusive: 13.1 µM [inhibitor, single point]	
CCCOC(=O)C1C2C=CC3(CN(c4cccc(Cl)c4)C(=O)C13)O2 (stereo not given)	inconclusive: 11.7 µM [inhibitor, single point]	
CC1(C)Cc2c(c(-c3ccccc3)nc3sc4c(=O)[nH]c(=S)[nH]c4c23)CO1	inactive	
Cc1ccc([N+](=O)[O-])cc1NC(=O)c1ccc2c(c1)OCO2	inactive	
Clc1ccc(C2=NNC(=NCC3CCCO3)SC2)cc1 (stereo not given)	inconclusive: 2.08 µM [inhibitor, single point]	
CCOc1ccccc1Nc1ccc(C(=O)O)cc1[N+](=O)[O-]	inactive	
CCc1nc(C)cn1S(=O)(=O)c1cc(Br)ccc1OC	inactive	
Cc1ccc(/C=N/NC(=O)C[n+]2ccccc2)o1	inactive	
Cc1sc2ncn(CC(=O)NCCCC(=O)N3CCN(c4ccccc4F)CC3)c(=O)c2c1C	inactive	
Cc1cc(C)c2c(=O)[nH]c(=O)n(Cc3ccccc3)c2n1	inconclusive: 16.5 µM [inhibitor, single point]	
CCOC(=O)c1c(C)nn(-c2ccc(NC(=O)c3cccs3)cc2)c1C	active: 3.29 µM	
COc1ccccc1NC(=O)c1ccc2c(c1)C(=O)N(Cc1ccco1)C2=O	inconclusive: 7.38 µM [inhibitor, partial curve, poor fit]	
Cc1cccc(C(=O)Nc2ccc(N3CCC(CCN4CCOCC4)CC3)c(C(=O)O)c2)c1	inactive	
O=C(Nc1c2c(nn1-c1cccc(Cl)c1)CS(=O)(=O)C2)c1ccco1	inconclusive: 5.22 µM [inhibitor, partial curve]	
Cc1ccc(/C=N/N=C/c2ccc(C)cc2)cc1	inconclusive: 18.5 µM [inhibitor, partial curve, poor fit]	
COc1ccc(N2C(=O)/C(=C/c3cccs3)NC2=S)cc1	inactive	
S=c1nc(C2CC2)n(-c2ccccc2)[nH]1	inactive	
COc1ccc(C(=O)Nc2nc(C)cs2)cc1S(=O)(=O)N1CCCC1	inconclusive: 18.5 µM [inhibitor, single point]	
Cc1nn(C)c(C)c1S(=O)(=O)N1CCC(C(=O)NC2CCCCC2)CC1	active: 9.28 µM	
CN(c1ccccc1)S(=O)(=O)c1ccc(C(=O)NCC(c2ccco2)N2CCCCC2)cc1 (stereo not given)	active: 7.38 µM	

Among those listed so far, 2 contain fluorine:
SMILES	Potency	activity change, negative = inhibition
C=CCn1c(SCc2ccc(F)cc2)nnc1-c1sc2nc(C)cc(C)c2c1N	inconclusive: 13.1 µM [inhibitor, single point]	
Cc1sc2ncn(CC(=O)NCCCC(=O)N3CCN(c4ccccc4F)CC3)c(=O)c2c1C	inactive	

Additional results follow.

SMILES	Potency	activity change, negative = inhibition
CC(C)CN(CC(C)C)C(=O)Cc1coc2ccc3ccccc3c12	inconclusive: 4.15 µM [inhibitor, partial curve, poor fit]	
Cc1cccc(C(=O)NCC(=O)Nc2ccncc2)c1	inactive	
COCCCNC(=O)c1c(N)n(/N=C/c2cccnc2)c2nc3ccccc3nc12		inactive: 63.2% [at 5.75 µM]
Cc1cc(C)n(C(=O)CCN2C(=O)c3ccccc3C2=O)n1	inactive	
Cc1cc(C(=O)N2CCCC(Nc3ccc(F)cc3)C2)c(C)o1 (stereo not given)	inactive	
CCNS(=O)(=O)c1ccc(CCC(=O)NC2CCCC2)cc1	inconclusive: 18.5 µM [inhibitor, single point]	
COCCCN(Cc1ccco1)C(=O)CSc1nc2ncccc2[nH]1	active: 13.1 µM	
COc1ccc(-c2nnc(SCC(=O)NC(C)c3ccccc3)o2)cc1 (stereo not given)	active: 10.4 µM	
Nc1nc2c(Cl)cc(Cl)cc2s1	inactive	
O=C(NCCc1ccccc1)c1ccccc1[N+](=O)[O-]	inconclusive: 18.5 µM [inhibitor, single point]	
Cc1cc(NC(=O)CCC(=O)N(c2ccccc2)C(C(=O)NCC2CCCO2)c2cccnc2)no1 (stereo not given)	active: 10.4 µM	
Cc1cc(N2CCOCC2)ccc1/C=C1\NC(=O)N(Cc2ccccc2F)C1=O	inactive	
O=C(CSCc1ccc(Cl)cc1)NCCSCc1ccco1	inconclusive: 18.5 µM [inhibitor, single point]	
O=C(C1CCC(Cn2c(=O)[nH]c3ccccc3c2=O)CC1)N1CCN(c2ccccc2)CC1 (stereo not given)	inconclusive: 10.4 µM [inhibitor, single point]	
Cc1ccc(O)c(C(=O)CC(=O)c2ccccc2Cl)c1	inactive	
Cn1cc(CN2CCN(Cc3cccnc3)CC2)c(-c2ccc3c(c2)OCCO3)n1	inconclusive: 0.522 µM [inhibitor, full curve]	
CC(=O)c1ccc[n+](CC(=O)NC(C)c2ccccc2)c1 (stereo not given)	inconclusive: 18.5 µM [inhibitor, single point]	
Cc1cc(Cn2nc(-c3ccccc3)cc2C(=O)NCc2cccc(Br)c2)on1	inconclusive: 18.5 µM [inhibitor, single point]	
CC(=O)c1cccc(NC(=O)C2C3CCC(C3)C2C(=O)O)c1 (stereo not given)	inconclusive: 0.0037 µM [inhibitor, full curve, poor fit]	
COc1ccc(-c2nnc(SC(=O)N3c4ccccc4Sc4ccccc43)o2)cc1	inconclusive: 13.1 µM [inhibitor, single point]	
CC(=O)Nc1ccc(S(=O)(=O)N2CCC(C(=O)NCCc3ccc(Cl)cc3)CC2)cc1	inconclusive: 4.65 µM [inhibitor, partial curve]	
CCOC(=O)Cc1csc(NC(=O)CSc2nnnn2-c2ccc(CC)cc2)n1	inactive	
Cc1csc(NC(=O)C(Cc2ccccc2)n2cccc2)n1 (stereo not given)	inconclusive: 11.7 µM [inhibitor, single point]	
Cc1ccccc1NC(=O)NC(N)=O	inactive	
CCOc1ccc(NS(=O)(=O)c2ccc(C(=O)N(C)Cc3cccc(OC)c3OC)cc2)cc1	inconclusive: 14.7 µM [inhibitor, partial curve]	

SMILES	Potency	activity change, negative = inhibition
COC(=O)C(CC(=O)c1ccc(C)cc1)n1nc(C)cc1C (stereo not given)	inconclusive: 13.1 µM [inhibitor, single point]	
CCOc1ccc(S(=O)(=O)NCCC(=O)N2CCN(c3ccc(OC)cc3)CC2)cc1	inconclusive: 10.4 µM [inhibitor, single point]	
O=C(O)c1ccc(S(=O)(=O)N2CCC3(CC2)CC(=O)c2ccccc2O3)cc1	inactive	
COc1ccc(CCNC(=O)C2CCN(c3ccc(N4CCOCC4)nn3)CC2)c(OC)c1	inconclusive: 3.29 µM [inhibitor, partial curve, poor fit]	
N#Cc1cccc(NC(=O)NCCc2c[nH]c3ccccc23)c1	inconclusive: 3.29 µM [inhibitor, full curve, poor fit]	
O=C(COC(=O)COc1ccc(Cl)cc1Br)NCc1cccs1	inactive	
Cc1c(C(=O)NC(=S)Nc2ccc(NC(=O)c3cccs3)cc2)oc2ccccc12	inconclusive: 18.5 µM [inhibitor, single point]	
CCC(=O)NC(=S)NNC(=O)c1ccc(NC(=O)c2ccccc2)cc1	inconclusive: 0.0026 µM [inhibitor, full curve, poor fit]	
Cc1ccc(-n2c(SCC(=O)NCCN3C(=O)CSC3=O)nnc2-c2cccc(C)c2)cc1	inconclusive: 13.1 µM [inhibitor, partial curve, poor fit]	
CCCn1nc(C(=O)Nc2nc(-c3ccccn3)cs2)c2ccccc2c1=O	active: 4.15 µM	
CCOC(=O)c1nc(Nc2cccc(C)c2)c2ccccc2n1	inconclusive: 18.5 µM [inhibitor, single point]	
Cc1cc(NC2CCCCC2)nc(NCc2ccccc2)n1	active: 1.47 µM	
Cc1cccc(-c2ccc3ncnc(NCc4cccs4)c3c2)c1	active: 2.33 µM and active: 3.29 µM	
CC(=O)Nc1ccccc1NC(=O)CC(C)(C)C	inconclusive: 2.33 µM [inhibitor, partial curve, poor fit]	
Oc1ccc(-c2[nH]ncc2-c2cnn(-c3ccccc3)c2)c(O)c1	inconclusive: 5.22 µM [inhibitor, partial curve, poor fit]	
O=C(NCCc1ccccc1)c1ccccc1SCC(=O)N1CCCC1	inactive	
CCOc1ccc(N(CC(=O)Nc2cccc(F)c2)S(=O)(=O)c2c(C)noc2C)cc1	inactive	
CC(CC(=O)OCC(=O)Nc1ccc2[nH]c(=O)[nH]c2c1)c1ccccc1 (stereo not given)	inactive	
CC1CCCN(S(=O)(=O)c2ccc(C(=O)Nc3nnc(C4CC4)o3)cc2)C1 (stereo not given)	inconclusive: 8.28 µM [inhibitor, partial curve]	
Cn1nc(C(F)(F)F)c2cc(C(=O)Nc3ccc(Cl)cc3)sc21	inconclusive: 20.8 µM [inhibitor, single point]	
Cc1ccc(-n2ncc3c2CC(C)(C)CC3NC(=O)CCn2cncn2)cc1 (stereo not given)	active: 10.4 µM	
CCOCCCNC(=O)CCNC(=O)c1cc(OC)c(OC)c(OC)c1	inconclusive: 11.7 µM [inhibitor, partial curve]	
Cc1ccc2occ(/C=N/NC(=O)c3ccccc3C)c(=O)c2c1	active: 11.7 µM	
Cc1cc2ccc3ccccc3c2cc1CN(C)C	inconclusive: 18.5 µM [inhibitor, single point]	
COc1ccccc1C(=O)COC(=O)c1c(-c2ccccc2)noc1C	inconclusive: 13.1 µM [inhibitor, single point]	

Structures shown so far that contain an aryl thioether with sulfur outside any ring:
SMILES	Potency	activity change, negative = inhibition
CC1CN(CCCSc2ccc(Cl)cc2)CC(C)O1 (stereo not given)	inconclusive: 2.33 µM [inhibitor, full curve]	
CCOc1ccc(Nc2nc(Cc3nnc(SCC(=O)c4ccc(C)cc4)o3)cs2)cc1	inconclusive: 18.5 µM [inhibitor, single point]	
C=CCn1c(SCc2ccc(F)cc2)nnc1-c1sc2nc(C)cc(C)c2c1N	inconclusive: 13.1 µM [inhibitor, single point]	
COCCCN(Cc1ccco1)C(=O)CSc1nc2ncccc2[nH]1	active: 13.1 µM	
COc1ccc(-c2nnc(SCC(=O)NC(C)c3ccccc3)o2)cc1 (stereo not given)	active: 10.4 µM	
CCOC(=O)Cc1csc(NC(=O)CSc2nnnn2-c2ccc(CC)cc2)n1	inactive	
Cc1ccc(-n2c(SCC(=O)NCCN3C(=O)CSC3=O)nnc2-c2cccc(C)c2)cc1	inconclusive: 13.1 µM [inhibitor, partial curve, poor fit]	
O=C(NCCc1ccccc1)c1ccccc1SCC(=O)N1CCCC1	inactive	
